Data reported in publication PMC4792956.
No constants are given. Whether binding was seen depends on the method and setting. Binding seen in cells or lysates may run through a third protein. Here binding means that the protein was enriched with, or labelled near, the bait; the list need not be complete. A no says only that the protein was not detected with the bait. Sequences can lack the tags named with a protein.

Protein sequences, listed by entry. Tags and fused reporters are not part of them.
UniProt Q9V3Z6: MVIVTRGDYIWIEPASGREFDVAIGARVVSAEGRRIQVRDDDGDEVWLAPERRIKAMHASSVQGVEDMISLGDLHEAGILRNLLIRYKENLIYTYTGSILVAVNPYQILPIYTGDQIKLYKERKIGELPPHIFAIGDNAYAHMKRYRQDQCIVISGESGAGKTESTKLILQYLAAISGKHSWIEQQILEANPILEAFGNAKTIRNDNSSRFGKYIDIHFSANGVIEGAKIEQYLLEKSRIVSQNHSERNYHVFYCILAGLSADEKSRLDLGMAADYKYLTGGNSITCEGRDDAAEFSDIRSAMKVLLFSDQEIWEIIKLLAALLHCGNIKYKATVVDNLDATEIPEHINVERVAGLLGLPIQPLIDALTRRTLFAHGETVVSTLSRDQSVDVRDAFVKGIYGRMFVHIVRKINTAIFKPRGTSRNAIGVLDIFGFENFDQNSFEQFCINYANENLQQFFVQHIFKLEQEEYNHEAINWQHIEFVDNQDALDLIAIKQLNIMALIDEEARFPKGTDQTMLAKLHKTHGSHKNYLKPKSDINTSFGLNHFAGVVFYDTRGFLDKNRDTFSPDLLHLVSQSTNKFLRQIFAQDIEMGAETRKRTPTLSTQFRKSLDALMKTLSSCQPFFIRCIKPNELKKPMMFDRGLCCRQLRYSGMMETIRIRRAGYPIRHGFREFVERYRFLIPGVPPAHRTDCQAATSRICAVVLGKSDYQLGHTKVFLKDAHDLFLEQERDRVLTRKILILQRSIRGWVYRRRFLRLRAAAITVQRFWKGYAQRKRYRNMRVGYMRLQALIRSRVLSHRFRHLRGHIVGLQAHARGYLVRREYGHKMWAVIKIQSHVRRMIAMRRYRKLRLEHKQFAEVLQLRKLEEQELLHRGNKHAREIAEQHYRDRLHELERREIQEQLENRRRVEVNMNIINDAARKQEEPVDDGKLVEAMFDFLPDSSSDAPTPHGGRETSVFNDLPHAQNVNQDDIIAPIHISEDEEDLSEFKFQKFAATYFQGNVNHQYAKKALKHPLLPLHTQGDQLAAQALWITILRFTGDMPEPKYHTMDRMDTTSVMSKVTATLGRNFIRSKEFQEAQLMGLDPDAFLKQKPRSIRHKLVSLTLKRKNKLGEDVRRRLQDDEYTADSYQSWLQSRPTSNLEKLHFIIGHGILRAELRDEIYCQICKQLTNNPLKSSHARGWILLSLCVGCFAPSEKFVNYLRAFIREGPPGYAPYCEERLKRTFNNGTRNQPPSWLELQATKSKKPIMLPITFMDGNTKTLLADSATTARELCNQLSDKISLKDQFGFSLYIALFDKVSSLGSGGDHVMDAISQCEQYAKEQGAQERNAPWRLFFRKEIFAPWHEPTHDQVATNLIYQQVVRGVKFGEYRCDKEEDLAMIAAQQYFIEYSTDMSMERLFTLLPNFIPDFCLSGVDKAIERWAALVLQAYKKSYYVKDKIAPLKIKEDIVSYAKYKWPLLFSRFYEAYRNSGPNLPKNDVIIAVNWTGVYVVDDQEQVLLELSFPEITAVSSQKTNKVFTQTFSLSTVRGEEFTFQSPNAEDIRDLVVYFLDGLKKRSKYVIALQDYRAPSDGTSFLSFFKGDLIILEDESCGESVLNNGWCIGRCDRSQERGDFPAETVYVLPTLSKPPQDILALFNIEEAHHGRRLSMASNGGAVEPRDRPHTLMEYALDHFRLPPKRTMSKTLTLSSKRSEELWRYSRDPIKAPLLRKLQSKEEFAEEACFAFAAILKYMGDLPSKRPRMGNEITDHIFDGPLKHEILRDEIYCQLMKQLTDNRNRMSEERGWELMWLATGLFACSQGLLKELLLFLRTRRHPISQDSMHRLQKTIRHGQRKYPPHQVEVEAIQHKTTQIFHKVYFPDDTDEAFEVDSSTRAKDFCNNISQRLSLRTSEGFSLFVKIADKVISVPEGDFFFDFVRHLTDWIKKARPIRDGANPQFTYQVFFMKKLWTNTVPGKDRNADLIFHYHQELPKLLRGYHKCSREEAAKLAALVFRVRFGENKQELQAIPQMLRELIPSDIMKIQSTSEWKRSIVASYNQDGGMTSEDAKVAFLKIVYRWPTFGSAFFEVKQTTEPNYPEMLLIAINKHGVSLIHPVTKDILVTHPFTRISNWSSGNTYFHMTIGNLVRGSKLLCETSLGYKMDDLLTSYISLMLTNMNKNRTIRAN

Tests used:
Assay in all cases: affinity purification with mass spectrometry; HA3x-tagged baits stably expressed in Drosophila S2 cells; large-scale affinity purification on α-HA resin, mass spectrometric analysis; minimum score of two unique peptides
HA3x-tagged DIAP1 = biological target: T1, HA3x-tagged DIAP1 (UniProt Q24306)
T1 sequence: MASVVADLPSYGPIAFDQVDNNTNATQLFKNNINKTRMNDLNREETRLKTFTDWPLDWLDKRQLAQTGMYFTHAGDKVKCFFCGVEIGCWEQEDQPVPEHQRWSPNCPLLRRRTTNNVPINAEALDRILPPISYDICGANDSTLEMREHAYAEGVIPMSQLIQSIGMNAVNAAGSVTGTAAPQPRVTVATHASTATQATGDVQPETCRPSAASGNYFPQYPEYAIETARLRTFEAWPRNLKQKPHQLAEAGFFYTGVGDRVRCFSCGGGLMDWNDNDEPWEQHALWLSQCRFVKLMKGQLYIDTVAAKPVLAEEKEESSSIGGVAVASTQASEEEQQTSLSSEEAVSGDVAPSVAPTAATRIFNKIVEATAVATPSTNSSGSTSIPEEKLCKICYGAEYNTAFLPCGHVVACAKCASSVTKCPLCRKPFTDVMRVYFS

HA3x-tagged IRD5 = biological target: T2, HA3x-tagged IRD5 (UniProt Q9VEZ5)
T2 sequence: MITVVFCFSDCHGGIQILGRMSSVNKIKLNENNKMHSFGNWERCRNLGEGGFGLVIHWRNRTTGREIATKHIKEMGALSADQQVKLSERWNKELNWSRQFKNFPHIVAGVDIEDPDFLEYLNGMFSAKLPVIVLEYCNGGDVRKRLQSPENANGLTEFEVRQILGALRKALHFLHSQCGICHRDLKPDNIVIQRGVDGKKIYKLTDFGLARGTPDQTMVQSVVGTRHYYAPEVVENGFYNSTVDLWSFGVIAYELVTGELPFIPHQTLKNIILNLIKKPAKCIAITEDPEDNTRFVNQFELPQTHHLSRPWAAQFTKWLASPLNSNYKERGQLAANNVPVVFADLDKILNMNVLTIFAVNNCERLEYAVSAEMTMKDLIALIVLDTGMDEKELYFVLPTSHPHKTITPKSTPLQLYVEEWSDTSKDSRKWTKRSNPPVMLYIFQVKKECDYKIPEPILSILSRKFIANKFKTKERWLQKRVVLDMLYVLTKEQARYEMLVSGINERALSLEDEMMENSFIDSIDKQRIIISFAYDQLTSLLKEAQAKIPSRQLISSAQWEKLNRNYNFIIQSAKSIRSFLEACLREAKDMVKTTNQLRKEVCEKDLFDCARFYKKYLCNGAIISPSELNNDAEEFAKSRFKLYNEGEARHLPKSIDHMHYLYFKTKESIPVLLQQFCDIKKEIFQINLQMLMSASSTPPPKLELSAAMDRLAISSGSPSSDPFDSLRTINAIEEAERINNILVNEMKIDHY

HA3x-tagged DARK = biological target: T3, HA3x-tagged DARK (UniProt Q7KLI1)
T3 sequence: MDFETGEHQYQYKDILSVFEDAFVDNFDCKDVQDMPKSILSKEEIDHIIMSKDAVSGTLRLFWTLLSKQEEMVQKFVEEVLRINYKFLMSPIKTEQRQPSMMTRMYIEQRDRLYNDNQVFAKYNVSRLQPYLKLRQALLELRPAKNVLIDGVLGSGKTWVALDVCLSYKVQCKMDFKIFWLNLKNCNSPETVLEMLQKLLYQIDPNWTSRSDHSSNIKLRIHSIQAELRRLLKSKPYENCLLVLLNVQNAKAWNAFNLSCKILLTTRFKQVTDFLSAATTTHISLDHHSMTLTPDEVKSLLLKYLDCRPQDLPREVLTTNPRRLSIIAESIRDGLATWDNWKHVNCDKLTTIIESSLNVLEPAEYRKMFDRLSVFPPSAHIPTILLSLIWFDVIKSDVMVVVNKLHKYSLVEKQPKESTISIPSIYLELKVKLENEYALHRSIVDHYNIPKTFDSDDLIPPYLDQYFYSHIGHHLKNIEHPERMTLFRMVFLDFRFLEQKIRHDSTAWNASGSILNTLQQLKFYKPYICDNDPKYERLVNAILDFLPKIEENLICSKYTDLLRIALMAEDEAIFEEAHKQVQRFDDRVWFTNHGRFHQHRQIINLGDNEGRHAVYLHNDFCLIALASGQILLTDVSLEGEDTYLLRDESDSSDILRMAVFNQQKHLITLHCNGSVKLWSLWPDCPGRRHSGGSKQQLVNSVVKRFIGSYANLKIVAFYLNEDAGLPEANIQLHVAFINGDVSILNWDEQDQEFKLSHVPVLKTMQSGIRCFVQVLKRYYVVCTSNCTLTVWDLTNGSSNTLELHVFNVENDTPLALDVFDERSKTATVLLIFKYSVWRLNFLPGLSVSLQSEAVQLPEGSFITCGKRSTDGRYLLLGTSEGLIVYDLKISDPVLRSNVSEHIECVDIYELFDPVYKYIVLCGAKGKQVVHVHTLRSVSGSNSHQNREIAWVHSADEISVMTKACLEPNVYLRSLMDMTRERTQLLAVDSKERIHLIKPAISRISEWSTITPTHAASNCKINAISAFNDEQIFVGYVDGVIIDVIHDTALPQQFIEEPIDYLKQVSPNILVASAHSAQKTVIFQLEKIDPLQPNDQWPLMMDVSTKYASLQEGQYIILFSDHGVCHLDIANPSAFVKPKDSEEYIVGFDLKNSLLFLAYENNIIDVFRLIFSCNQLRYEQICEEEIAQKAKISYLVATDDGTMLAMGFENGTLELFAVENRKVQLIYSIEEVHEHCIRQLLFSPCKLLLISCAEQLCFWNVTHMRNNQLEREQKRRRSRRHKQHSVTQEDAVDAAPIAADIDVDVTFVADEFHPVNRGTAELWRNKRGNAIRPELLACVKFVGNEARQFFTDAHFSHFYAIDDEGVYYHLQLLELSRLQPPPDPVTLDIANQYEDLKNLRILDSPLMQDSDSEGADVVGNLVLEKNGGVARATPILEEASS

Measured: binding

CRINKLED (CK), endogenous in S2 cells (from UniProt Q9V3Z6 1-2167)
no binding: all assays above
